Common to all, as to assay: log2 fold change, soluble protein after heating vs DMSO (PISA); higher = thermal stabilisation; K562 lysate, 10 uM; active = over 0.2 and 3.5 SD of the protein, either way, in both replicates (recomputed)
Compound in assay [1]: C1=CC=C(C=C1)[C@H](COC2=CC3=C(C=C2)NC(=O)N3)NC(=O)C4=CC=CN(C4=O)CC5=CC(=C(C=C5)F)F
The method, boiled down:
(§1)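 Soluble protein was defined as the supernatant remaining after 21,000xg for 90 min, following pooling of heated aliquots and adjustment to 0.5% NP-40 at 4°C. Before that, crude K562 extract at 1 mg/mL protein in PBS pH 7.4 with 1 mM MgCl2 was treated with 10 μM compound for 30 min and heated for 3 min across 48°C-58°C. Quantification used TMTpro 16plex LC-MS/MS with channel sums equalised, and values are log-two fold changes in thermal stability relative to solvent controls from duplicates.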

Protein sequences, listed by entry. Tags and fused reporters are not part of them. Lines headed by an entry give the natural chain unless they say otherwise; changes in a name come on top.
UniProt Q8IVL1: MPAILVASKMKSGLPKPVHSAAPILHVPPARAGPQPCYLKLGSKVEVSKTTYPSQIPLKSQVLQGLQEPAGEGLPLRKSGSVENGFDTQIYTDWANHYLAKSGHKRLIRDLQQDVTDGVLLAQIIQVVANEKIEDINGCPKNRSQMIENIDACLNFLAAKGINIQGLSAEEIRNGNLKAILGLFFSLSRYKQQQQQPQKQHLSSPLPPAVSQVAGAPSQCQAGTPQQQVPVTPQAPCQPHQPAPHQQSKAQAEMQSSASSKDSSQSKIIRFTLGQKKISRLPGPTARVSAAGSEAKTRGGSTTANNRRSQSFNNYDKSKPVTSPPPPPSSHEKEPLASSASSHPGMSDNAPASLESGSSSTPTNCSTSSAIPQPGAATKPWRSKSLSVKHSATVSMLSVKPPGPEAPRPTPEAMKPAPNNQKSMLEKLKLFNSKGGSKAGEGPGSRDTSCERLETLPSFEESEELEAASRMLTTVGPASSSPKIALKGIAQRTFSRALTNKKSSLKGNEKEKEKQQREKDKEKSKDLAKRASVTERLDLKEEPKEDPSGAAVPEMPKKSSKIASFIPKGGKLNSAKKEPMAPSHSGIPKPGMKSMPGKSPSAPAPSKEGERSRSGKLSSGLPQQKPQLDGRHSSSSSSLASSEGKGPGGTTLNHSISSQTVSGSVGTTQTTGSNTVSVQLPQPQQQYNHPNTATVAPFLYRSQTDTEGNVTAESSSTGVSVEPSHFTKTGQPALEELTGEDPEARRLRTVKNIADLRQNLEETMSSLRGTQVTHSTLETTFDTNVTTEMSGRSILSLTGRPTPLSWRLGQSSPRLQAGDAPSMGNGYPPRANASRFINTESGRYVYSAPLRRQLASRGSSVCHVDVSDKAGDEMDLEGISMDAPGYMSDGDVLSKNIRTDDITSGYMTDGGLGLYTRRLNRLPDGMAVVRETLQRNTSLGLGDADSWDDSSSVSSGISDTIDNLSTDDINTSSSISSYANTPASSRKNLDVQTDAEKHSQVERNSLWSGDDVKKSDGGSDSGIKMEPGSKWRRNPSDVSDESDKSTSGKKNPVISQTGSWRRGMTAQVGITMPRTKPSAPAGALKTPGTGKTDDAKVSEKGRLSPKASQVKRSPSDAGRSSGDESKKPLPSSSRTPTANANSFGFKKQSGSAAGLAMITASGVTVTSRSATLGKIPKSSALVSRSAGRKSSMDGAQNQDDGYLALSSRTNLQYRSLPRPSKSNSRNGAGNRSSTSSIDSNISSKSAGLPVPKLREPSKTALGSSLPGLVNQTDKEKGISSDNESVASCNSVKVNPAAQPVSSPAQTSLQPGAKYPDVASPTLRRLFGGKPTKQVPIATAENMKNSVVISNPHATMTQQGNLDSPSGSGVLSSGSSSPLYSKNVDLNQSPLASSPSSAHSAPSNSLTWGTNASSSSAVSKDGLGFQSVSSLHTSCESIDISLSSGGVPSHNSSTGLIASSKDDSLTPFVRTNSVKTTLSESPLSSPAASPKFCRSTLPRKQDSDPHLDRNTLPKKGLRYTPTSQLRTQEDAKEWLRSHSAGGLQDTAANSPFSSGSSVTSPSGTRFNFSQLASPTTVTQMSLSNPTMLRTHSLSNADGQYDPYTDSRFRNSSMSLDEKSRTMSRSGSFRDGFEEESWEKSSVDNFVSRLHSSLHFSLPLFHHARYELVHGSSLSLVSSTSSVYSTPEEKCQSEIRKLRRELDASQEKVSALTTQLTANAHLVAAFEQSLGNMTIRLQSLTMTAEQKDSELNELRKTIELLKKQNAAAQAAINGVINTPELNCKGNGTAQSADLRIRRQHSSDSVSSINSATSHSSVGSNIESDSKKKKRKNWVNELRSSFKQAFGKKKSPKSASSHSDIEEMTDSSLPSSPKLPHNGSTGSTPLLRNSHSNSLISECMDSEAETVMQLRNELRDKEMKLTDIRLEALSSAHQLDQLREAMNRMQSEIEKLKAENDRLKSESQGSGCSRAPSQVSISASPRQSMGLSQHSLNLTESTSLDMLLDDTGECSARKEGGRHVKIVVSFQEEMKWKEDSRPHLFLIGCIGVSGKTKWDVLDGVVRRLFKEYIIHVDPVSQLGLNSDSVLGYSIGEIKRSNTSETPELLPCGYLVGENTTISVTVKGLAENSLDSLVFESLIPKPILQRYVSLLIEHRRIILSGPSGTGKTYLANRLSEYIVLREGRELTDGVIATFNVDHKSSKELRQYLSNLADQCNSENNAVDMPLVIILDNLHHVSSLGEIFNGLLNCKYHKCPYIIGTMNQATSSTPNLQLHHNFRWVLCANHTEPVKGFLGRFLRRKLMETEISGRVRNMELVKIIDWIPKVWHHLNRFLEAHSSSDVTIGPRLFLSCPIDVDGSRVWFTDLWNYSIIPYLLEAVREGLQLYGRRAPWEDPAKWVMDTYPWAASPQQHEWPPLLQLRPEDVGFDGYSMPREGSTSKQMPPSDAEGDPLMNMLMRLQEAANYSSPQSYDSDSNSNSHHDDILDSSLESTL
UniProt P19105: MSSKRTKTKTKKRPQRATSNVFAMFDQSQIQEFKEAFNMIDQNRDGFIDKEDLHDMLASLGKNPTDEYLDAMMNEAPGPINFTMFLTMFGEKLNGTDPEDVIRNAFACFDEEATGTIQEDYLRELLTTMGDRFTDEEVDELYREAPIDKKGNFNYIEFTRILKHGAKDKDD
UniProt G3V1V0: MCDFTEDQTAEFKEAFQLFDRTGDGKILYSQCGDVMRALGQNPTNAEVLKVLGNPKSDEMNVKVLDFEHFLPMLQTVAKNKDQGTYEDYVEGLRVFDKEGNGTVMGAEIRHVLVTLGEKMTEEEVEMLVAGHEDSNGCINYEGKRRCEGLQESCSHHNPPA
UniProt Q969V3: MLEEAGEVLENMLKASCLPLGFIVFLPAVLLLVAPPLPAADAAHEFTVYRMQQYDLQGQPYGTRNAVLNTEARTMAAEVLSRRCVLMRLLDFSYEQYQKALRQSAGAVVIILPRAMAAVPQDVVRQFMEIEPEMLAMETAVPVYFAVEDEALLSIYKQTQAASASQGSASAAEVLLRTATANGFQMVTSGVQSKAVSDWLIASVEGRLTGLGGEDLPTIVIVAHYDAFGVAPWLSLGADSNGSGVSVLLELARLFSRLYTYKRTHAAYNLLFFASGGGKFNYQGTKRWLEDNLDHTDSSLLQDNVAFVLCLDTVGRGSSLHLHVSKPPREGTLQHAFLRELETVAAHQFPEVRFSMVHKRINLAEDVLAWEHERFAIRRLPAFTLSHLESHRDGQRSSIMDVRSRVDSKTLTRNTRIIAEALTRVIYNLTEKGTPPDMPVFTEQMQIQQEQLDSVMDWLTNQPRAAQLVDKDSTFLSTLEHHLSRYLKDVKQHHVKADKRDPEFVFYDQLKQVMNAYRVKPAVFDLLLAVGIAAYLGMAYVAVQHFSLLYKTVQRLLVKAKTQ
UniProt Q6NZ67, whole entry, looked up: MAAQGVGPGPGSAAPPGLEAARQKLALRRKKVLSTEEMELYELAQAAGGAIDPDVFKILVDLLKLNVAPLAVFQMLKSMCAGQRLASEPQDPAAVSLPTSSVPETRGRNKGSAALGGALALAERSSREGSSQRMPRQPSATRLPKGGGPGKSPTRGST
UniProt Q13459: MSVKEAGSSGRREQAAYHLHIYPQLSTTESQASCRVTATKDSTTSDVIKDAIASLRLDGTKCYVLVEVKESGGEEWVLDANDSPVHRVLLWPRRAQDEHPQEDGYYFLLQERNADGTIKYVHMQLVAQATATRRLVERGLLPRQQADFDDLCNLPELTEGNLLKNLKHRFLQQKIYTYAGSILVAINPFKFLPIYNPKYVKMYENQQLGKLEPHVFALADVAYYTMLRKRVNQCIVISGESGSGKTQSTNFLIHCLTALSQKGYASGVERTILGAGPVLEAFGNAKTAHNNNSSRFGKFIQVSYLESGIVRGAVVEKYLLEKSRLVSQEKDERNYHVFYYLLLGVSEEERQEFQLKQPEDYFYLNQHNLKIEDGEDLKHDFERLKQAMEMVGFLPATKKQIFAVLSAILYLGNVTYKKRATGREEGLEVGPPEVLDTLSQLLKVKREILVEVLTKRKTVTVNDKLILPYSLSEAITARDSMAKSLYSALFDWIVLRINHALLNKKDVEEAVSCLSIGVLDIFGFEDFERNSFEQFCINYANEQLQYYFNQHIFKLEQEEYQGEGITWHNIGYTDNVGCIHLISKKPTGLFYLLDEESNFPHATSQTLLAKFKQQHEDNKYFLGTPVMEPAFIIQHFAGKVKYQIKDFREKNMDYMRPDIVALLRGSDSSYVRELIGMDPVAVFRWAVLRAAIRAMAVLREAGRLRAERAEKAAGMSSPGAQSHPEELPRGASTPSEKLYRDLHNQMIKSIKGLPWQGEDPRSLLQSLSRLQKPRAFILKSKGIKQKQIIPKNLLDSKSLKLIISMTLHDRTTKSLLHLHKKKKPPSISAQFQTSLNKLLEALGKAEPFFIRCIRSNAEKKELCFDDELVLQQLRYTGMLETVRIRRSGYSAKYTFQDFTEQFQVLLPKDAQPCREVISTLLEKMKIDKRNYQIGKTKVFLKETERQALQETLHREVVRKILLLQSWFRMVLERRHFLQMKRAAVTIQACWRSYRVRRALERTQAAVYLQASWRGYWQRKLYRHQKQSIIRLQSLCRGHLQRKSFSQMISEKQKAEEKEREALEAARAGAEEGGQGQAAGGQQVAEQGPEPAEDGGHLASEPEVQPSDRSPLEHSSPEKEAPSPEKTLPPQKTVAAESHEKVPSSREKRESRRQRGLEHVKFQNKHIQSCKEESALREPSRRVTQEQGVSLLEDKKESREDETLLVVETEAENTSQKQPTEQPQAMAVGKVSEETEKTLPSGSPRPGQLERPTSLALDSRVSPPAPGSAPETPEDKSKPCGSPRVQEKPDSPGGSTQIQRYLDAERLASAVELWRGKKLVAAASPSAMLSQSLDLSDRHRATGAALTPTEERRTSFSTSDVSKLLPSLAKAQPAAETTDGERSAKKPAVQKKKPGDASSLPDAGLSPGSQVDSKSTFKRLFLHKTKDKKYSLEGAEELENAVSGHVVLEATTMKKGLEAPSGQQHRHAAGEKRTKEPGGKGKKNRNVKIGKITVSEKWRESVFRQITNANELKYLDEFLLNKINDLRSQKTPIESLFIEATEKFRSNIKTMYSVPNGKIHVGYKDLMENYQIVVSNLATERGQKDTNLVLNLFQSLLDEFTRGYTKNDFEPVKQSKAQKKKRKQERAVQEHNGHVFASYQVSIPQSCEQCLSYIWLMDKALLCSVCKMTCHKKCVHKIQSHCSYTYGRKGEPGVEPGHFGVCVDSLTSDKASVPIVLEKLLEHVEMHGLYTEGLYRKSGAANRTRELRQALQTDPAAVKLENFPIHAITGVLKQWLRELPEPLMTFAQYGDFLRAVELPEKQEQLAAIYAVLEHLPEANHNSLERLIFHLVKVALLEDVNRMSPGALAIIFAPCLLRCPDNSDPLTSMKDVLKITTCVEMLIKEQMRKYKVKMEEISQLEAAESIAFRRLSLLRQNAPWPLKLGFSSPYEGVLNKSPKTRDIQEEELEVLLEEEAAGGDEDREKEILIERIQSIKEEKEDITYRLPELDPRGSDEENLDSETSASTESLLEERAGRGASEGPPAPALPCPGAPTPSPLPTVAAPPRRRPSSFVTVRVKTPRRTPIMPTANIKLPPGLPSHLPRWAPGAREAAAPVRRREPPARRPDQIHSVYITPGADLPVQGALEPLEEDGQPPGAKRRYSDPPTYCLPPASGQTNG
UniProt Q147X3: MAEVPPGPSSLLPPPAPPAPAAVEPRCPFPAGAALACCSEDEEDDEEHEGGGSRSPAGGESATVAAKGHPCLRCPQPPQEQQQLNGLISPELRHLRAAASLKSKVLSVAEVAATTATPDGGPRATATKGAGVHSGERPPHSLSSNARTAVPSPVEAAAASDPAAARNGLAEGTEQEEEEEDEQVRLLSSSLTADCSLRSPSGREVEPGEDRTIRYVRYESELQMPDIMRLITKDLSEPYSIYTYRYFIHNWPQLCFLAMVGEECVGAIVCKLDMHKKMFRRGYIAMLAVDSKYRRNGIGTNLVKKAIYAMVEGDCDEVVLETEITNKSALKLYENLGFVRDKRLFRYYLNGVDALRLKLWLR
UniProt Q13506: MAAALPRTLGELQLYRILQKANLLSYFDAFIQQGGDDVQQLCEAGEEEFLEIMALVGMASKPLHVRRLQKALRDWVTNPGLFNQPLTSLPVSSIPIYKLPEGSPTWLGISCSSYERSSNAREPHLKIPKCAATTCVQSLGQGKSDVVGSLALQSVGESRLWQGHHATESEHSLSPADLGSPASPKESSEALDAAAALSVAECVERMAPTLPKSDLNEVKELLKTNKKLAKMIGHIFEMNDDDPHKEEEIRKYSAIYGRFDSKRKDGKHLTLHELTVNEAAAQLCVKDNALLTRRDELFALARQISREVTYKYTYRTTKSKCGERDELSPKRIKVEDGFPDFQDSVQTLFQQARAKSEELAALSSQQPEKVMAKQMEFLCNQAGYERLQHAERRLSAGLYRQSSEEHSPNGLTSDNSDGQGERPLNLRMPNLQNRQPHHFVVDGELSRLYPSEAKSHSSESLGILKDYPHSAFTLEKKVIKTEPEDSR

Compound in assay [2]: CC1=C(SC2=C1C(=N[C@H](C3=NN=C(N32)C)CC(=O)N)C4=CC=C(C=C4)Cl)C
The method, boiled down:
as §1

Compound in assay [3]: c1ccc([C@@H]2C[C@H]2NC2CCNCC2)cc1
The gist of the method: as §1

Compound in assay [4]: Cc1sc2c(c1C)C(c1ccc(Cl)cc1)=N[C@@H](CC(=O)OC(C)(C)C)c1nnc(C)n1-2
The method, boiled down:
as §1

Compound in assay [5]: CC1=C2C(=CC=C1)N=C(N(C2=O)C3=CC=CC=C3C)CN4C=NC5=C(N=CN=C54)N
The gist of the method: as §1

This is one part of the list.

As for NAV2 (UniProt Q8IVL1), the log2 fold change in assay [1] is inactive: -0.18; in assay [2], inactive: 0.145; in assay [3] it was inactive: 0.
As to NCOA7 isoform 2 (UniProt Q8NI08), the log2 fold change in assay [4] is inactive: -0.102.
Regarding MYH2 (UniProt Q9UKX2), the log2 fold change was inactive: -1.29 in assay [1], inactive: 0.432 in assay [2] and inactive: -0.222 in assay [4].
For NAP1L4 (UniProt C9JZI7), the log2 fold change in assay [4] was inactive: -0.061.
Consider NCCRP1 (UniProt Q6ZVX7), for which the log2 fold change in assay [1] was inactive: -0.3; in assay [2], inactive: 0.14; in assay [4], inactive: 0.033; in assay [3], inactive: 0.
Take MYL12A (UniProt P19105): in assay [3], the log2 fold change is inactive: 0.14.
Turning to MYL6 (UniProt G3V1V0), the log2 fold change in assay [5] is inactive: -0.066; in assay [4], inactive: -0.214; in assay [3] it was inactive: -0.231.
Consider NAMPT (UniProt C9JF35), for which the log2 fold change in assay [3] is inactive: -0.09.
MXRA7 (UniProt P84157): the log2 fold change in assay [5] is inactive: -0.05; in assay [4], inactive: -0.106; in assay [3], inactive: -0.062.
Consider N4BP2L1 (UniProt Q5TBK1), for which the log2 fold change in assay [1] is inactive: -0.153; in assay [2], inactive: 0.068; in assay [5] it was inactive: -0.021; in assay [3], inactive: -0.287.
Take NCR3LG1 (UniProt Q68D85): the log2 fold change in assay [1] was inactive: -0.024; in assay [2], inactive: -0.014; in assay [5], inactive: 0.001; in assay [4], inactive: -0.041; in assay [3] it was inactive: -0.049.
On to NCLN isoform 2 (UniProt Q969V3), for which the log2 fold change in assay [5] was inactive: -0.063.
On to MUS81 (UniProt Q96NY9), for which the log2 fold change is inactive: 0.131 in assay [1], inactive: 0.191 in assay [2], inactive: -0.032 in assay [4] and inactive: 0 in assay [3].
As for NASP isoform 2 (UniProt P49321), the log2 fold change in assay [1] was inactive: 0.146; in assay [2] it was inactive: -0.332; in assay [3], inactive: 0.585.
On to MYLK3 (UniProt Q32MK0), for which the log2 fold change was inactive: 0.061 in assay [1], inactive: -0.064 in assay [2] and inactive: -0.039 in assay [3].
In the case of MZT2B (UniProt Q6NZ67), the log2 fold change was inactive: 0.051 in assay [1], inactive: 0.024 in assay [2], inactive: -0.078 in assay [5] and inactive: 0.09 in assay [3].
As for MYO1G (UniProt B0I1T2), the log2 fold change in assay [1] is inactive: -0.159; in assay [2], inactive: 0.003; in assay [4] it was inactive: 0.054; in assay [3] it was inactive: 0.332.
Turning to NCL (UniProt P19338), the log2 fold change in assay [1] is inactive: -0.002; in assay [2], inactive: 0.002; in assay [5], inactive: -0.004; in assay [4], inactive: 0; in assay [3], inactive: -0.004.
On to NCALD (UniProt P61601), for which the log2 fold change in assay [1] was inactive: -0.018; in assay [2], inactive: 0.01; in assay [5] it was inactive: -0.005; in assay [4], inactive: 0.054; in assay [3] it was inactive: 0.025.
Taken in the same sequence, the figures for MYO9B (UniProt Q13459) were inactive: 0.012, inactive: 0.022, inactive: -0.016, inactive: -0.007 and inactive: -0.017.
For NCAPD3 (UniProt P42695), the log2 fold change is inactive: 0.028 in assay [1]; inactive: -0.007 in assay [2]; inactive: 0.046 in assay [5]; inactive: -0.005 in assay [4]; inactive: 0.016 in assay [3].
As to MUC5B (UniProt Q9HC84), the log2 fold change was inactive: -0.242 in assay [4] and inactive: -0.012 in assay [3].
For the target NACA2 (UniProt Q9H009), in assay [4], the log2 fold change was inactive: -0.028.
Consider NCF4 (UniProt Q15080), for which the log2 fold change in assay [1] is inactive: 0.055; in assay [2], inactive: -0.028; in assay [3], inactive: -0.001.
For MYL3 (UniProt P08590), the log2 fold change was inactive: 0.085 in assay [1], inactive: -0.022 in assay [2], inactive: -0.035 in assay [5] and inactive: 0.011 in assay [3].
In the case of MYLK (UniProt Q15746), the log2 fold change in assay [1] is inactive: -0.038; in assay [2], inactive: -0.161; in assay [5], inactive: -0.008; in assay [3] it was inactive: 0.123.
For NACC2 (UniProt Q96BF6), the log2 fold change in assay [5] is inactive: -0.054; in assay [4] it was inactive: -0.056; in assay [3] it was inactive: -0.083.
For the target NABP1 (UniProt Q96AH0), in assay [5], the log2 fold change was inactive: -0.08.
As to NAA30 (UniProt Q147X3), the log2 fold change in assay [1] was inactive: 0; in assay [2] it was inactive: 0.018; in assay [5], inactive: 0.033; in assay [4] it was inactive: 0.02; in assay [3], inactive: -0.013.
On to MYBL2 (UniProt P10244), for which the results for the log2 fold change in assay [5], in assay [4] and in assay [3] were inactive: -0.01, inactive: 0.047 and active: 0.326, respectively.
With MYO10 (UniProt Q9HD67), the log2 fold change in assay [1] was inactive: -0.122; in assay [2] it was inactive: 0.104; in assay [5], inactive: 0.165; in assay [3], inactive: 0.024.
Take MYL6 isoform 2 (UniProt P60660): the log2 fold change in assay [5] was inactive: 0.279; in assay [4], inactive: 0.031; in assay [3], inactive: -0.162.
Take NCKAP5L (UniProt Q9HCH0): the log2 fold change in assay [4] was inactive: -0.071; in assay [3], inactive: 0.073.
In the case of NAB1 (UniProt Q13506), the log2 fold change is inactive: 0.016 in assay [1], inactive: -0.069 in assay [2], inactive: -0.018 in assay [4] and inactive: -0.02 in assay [3].

The record behind these values is the supplement of paper PMC10849652.
